Experimental data from PMC9279504.
No constants are given. Whether binding was seen depends on the method and setting. Binding seen in cells or lysates may run through a third protein. Binding calls can cover weak binding; strength is not graded here.

The chains behind the UniProt entries cited, without tags or fusion partners. Where a name states a change or a piece, a line headed by the entry shows the natural chain unless it says otherwise.
UniProt E9AWP3: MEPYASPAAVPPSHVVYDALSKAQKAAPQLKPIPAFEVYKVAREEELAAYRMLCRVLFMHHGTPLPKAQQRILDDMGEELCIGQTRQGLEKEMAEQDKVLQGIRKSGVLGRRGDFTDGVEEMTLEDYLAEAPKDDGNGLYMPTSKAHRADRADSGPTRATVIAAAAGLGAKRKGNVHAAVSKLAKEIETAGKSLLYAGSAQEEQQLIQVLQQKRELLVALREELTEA
UniProt E9AMX7: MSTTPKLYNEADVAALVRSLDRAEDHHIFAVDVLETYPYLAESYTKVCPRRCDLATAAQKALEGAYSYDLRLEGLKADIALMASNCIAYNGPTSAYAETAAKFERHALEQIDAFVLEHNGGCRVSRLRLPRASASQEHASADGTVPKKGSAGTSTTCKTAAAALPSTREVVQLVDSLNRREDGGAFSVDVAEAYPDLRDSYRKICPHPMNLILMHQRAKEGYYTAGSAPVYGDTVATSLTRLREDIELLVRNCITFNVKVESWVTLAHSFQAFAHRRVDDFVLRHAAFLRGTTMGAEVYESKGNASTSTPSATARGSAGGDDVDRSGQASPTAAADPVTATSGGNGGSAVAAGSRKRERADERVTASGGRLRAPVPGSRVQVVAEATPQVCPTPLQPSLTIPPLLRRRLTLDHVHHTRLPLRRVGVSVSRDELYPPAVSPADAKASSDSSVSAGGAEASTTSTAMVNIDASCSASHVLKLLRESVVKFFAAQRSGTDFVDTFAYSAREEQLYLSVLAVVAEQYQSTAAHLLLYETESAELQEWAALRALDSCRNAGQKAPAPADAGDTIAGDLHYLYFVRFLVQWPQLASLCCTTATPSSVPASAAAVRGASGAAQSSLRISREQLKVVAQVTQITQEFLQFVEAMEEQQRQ

Assays:
Test in all cases: co-IP; non-crosslinking: lysis in 150 mM KCl with 0.2 % IGEPAL CA-630, anti-HA magnetic beads 1 h 4 C for 3xHA::mCherry bait; blot for Myc (BDF5 prey) and HA
[1] = biological target: LmxM.22.0880 tagged with 3xHA::mCherry (L. mexicana) (UniProt E9AVS0)
[2] = biological target: LmxM.08_29.1550 tagged with 3xHA::mCherry (L. mexicana) (UniProt E9ALR9)
[3] = biological target: BDF8 (LmxM.33.2300) tagged with 3xHA::mCherry (L. mexicana) (UniProt E9B516)
[4] = biological target: LmxM.24.0530 tagged with 3xHA::mCherry (L. mexicana) (UniProt E9AWP3)

- binding [1]: binds
- binding [2]: binds
- binding [3]: binds
- binding [4]: binds
Substance: mNG::3xMyc::BDF5 (bromodomain factor 5, endogenously tagged) (from UniProt E9AMX7)
